In assay [1] the target is 53BP1, endogenous in HeLa cells (human (endogenous in HeLa)) (UniProt Q12888). As to the kind of experiment: co-IP; endogenous proteins; IPs with anti-53BP1, anti-ACLY or control IgG from extracts of 53BP1+/+ or 53BP1-/- MEFs and of control or 53BP1-depleted HeLa cells; RIPA buffer, Protein G Sepharose, 4 °C overnight; western blot. A general note: A western blot detects proteins with antibodies after separation by electrophoresis.

By UniProt entry, the sequences of proteins in these tests, tags left out. Where a name states a change or a piece, a line headed by the entry shows the natural chain unless it says otherwise. Chains listed by the source or under a name are the forms on record and can include a tag or linker. Residues count along the entry.
UniProt Q12888: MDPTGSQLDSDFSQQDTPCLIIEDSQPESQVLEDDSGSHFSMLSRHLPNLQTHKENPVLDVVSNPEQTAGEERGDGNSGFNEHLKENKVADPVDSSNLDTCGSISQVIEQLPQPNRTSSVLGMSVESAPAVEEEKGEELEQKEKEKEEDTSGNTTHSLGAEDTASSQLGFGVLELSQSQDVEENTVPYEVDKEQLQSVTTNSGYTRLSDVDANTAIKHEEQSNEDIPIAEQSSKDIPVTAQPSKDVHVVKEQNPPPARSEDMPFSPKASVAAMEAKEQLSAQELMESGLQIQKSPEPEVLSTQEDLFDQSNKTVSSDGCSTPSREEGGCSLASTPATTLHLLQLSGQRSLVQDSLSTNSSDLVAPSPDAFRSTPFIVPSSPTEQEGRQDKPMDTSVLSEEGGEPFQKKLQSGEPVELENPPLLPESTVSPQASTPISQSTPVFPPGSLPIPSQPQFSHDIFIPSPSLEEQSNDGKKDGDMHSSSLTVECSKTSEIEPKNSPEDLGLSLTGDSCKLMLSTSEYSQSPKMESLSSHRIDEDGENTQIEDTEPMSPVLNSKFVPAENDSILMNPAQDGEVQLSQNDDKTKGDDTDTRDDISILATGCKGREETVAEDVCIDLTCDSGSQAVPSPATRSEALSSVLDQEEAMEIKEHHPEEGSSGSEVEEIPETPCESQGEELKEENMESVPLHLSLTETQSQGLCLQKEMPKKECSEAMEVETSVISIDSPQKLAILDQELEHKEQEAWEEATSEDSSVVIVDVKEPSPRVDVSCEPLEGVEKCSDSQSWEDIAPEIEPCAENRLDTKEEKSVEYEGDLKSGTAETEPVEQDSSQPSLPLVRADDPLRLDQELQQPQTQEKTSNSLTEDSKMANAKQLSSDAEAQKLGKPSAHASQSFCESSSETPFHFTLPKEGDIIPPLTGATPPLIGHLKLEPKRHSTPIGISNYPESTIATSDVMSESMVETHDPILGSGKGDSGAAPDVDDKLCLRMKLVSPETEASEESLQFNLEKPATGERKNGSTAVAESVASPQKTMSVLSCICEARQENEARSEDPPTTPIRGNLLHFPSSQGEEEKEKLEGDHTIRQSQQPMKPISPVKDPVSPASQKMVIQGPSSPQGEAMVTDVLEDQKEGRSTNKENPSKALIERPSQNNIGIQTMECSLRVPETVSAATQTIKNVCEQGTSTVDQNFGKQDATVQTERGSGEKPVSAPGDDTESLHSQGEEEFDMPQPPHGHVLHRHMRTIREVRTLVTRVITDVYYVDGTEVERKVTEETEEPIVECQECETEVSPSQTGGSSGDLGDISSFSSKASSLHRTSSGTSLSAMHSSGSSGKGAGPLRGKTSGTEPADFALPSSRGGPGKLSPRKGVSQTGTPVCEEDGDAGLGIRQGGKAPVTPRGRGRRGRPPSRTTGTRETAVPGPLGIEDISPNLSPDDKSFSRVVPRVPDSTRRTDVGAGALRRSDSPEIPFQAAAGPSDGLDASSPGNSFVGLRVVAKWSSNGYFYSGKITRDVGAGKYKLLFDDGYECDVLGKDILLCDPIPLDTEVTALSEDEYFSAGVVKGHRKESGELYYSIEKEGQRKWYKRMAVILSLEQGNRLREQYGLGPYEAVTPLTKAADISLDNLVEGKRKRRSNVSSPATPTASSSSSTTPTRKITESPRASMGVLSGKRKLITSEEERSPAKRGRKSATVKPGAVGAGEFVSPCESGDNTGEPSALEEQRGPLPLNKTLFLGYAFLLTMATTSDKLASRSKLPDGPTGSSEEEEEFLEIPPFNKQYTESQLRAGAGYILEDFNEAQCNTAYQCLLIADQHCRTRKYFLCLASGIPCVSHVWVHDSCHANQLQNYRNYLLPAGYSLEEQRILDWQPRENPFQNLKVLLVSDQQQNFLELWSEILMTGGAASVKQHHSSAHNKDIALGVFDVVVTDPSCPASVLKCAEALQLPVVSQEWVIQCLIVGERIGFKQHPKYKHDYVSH
GST-53BP1-N (GST-tagged N-terminus of 53BP1): residues 1-699 of Q12888
UniProt P53396: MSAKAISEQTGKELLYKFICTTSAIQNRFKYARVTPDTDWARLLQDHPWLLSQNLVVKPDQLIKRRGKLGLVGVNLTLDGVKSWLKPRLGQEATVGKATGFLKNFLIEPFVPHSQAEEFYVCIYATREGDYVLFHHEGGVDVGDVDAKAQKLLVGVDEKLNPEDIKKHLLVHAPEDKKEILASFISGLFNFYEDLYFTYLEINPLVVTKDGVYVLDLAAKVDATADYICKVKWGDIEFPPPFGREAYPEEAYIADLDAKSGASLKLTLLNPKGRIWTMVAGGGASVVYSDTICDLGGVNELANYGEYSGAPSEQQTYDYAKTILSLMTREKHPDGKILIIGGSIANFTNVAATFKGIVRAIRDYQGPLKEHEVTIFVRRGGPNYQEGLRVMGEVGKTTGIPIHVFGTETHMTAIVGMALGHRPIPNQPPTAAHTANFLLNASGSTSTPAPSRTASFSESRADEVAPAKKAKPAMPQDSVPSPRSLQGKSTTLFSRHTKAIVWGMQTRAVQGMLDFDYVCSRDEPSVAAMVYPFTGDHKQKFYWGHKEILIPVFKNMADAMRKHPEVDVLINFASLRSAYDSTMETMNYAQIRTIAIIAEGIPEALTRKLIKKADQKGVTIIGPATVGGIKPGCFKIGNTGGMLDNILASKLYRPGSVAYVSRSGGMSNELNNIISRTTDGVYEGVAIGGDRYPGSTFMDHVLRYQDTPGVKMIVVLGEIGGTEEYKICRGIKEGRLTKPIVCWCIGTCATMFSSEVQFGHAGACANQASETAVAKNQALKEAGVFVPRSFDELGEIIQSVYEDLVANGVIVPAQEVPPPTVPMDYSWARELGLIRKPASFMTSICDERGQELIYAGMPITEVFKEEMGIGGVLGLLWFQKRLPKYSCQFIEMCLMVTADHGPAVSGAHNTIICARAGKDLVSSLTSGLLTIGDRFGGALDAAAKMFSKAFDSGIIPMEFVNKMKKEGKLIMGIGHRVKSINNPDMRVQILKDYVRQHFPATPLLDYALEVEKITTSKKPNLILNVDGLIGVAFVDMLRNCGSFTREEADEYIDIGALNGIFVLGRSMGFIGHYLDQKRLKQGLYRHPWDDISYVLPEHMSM
GFP-ACLY-D3 (CoA ligase-containing region, residues 631–850): residues 631-850 of P53396

Assay [2] concerns the target HA-53BP1 (human wild-type 53BP1, pcDNA-HA-53BP1) (human) (UniProt Q12888). Put plainly: co-IP; HA-tagged 53BP1 constructs and GFP-tagged ACLY constructs co-transfected in HEK293T cells; RIPA buffer, Protein G Sepharose, 4 °C overnight; western blot.
For assay [3], the target named is GST-53BP1-N (GST-tagged N-terminus of 53BP1) (human) (UniProt Q12888). As to the kind of experiment: pull-down; recombinant GST-53BP1-N on Glutathione Sepharose 4B beads, total lysates of HEK293T cells transfected with WT GFP-ACLY or deletion mutants D3 and D4; binding buffer 20 mM Tris-HCl pH 7.5, 150 mM NaCl, 0.5% NP40, 4 °C, 90 min; only the target purified.

These are yes or no findings as the source states them, for the method shown. In cells and extracts the contact can be indirect. Some binding calls cover weakened binding; strength is not graded here.

We go through 3 substances from PMC8860602.

With “ACLY, endogenous in HeLa cells (from UniProt P53396 1-1101) (enzyme)”, the binding result in assay [1] is given as “binds”.

Consider “GFP-ACLY-D3 (CoA ligase-containing region, residues 631–850) (from UniProt P53396-1 631-850) (domain or fragment)”, for which the binding entry in assay [2] and in assay [3] was “binds” each time.

As for “GFP-ACLY (full length) (from UniProt P53396-1 1-1101) (enzyme)”, in assay [2], the binding result is on record as “binds”.
